From PubChem BioAssay AID540276 (National Center for Advancing Translational Sciences (NCATS), 2011)
Among all 300,000 compounds or so, about 5,400 (1.8%) were called active. The shares of active, inactive and inconclusive entries below differ from those in the screen. Calls follow the shape of the full dose curve; tested in HEK293 cells. A potency beside an inconclusive call is a rough fit, not a confirmed value.

Experiment: qHTS for inhibitors of binding or entry into cells for Marburg Virus
Details: Marburg virus pseudotyped entry inhibition, cell reporter; series mostly up to 37.8 µM
Potency is read from the fitted curve at half-maximal effect.

Compound	Potency
Cc1ccc([C@H]2C[C@H](O)[C@@H](n3cc(-c4ccc(F)cc4)nn3)CN2C(=O)c2cccs2)cc1	inconclusive: 0.0995 µM [inhibitor, full curve, poor fit]
O=C1N/C(=N\S(=O)(=O)c2ccccc2)S/C1=C\c1cc([N+](=O)[O-])ccc1O	inconclusive: 11.2 µM [activator, partial curve]
CCOC(=O)CC1C(=O)NCCN1S(=O)(=O)c1ccc(Cl)cc1Cl (stereo unspecified)	inconclusive: 3.66 µM [inhibitor, single point]
O=C(Nc1cccc(NC(=S)NC(=O)c2cccs2)c1)c1ccccc1	inconclusive: 0.126 µM [inhibitor, full curve, poor fit]
O=C(Cn1sc2ccccc2c1=O)NC12CC3CC(CC(C3)C1)C2	inconclusive: 3.55 µM [inhibitor, partial curve, poor fit]
COCCCNC(=O)c1cc2c(s1)CS(=O)(=O)C2	inconclusive: 29.1 µM [activator, single point]
COc1ccc(C(=O)Nc2nc(-c3cccs3)c(NC(C)=O)s2)cc1	inactive
CC(=O)c1ccc(NC(=O)C2CCN(S(=O)(=O)c3cccc4cccnc34)CC2)cc1	inactive
Cc1cc(/C=N/O)c(C)n1-c1ccc(Br)cc1	inconclusive: 6.31 µM [inhibitor, partial curve]
c1ccc2c(NC3C4CC5CC(C4)CC3C5)nc(N3CCOCC3)nc2c1 (stereo unspecified)	inconclusive: 6.31 µM [inhibitor, full curve, poor fit]
Cc1ccccc1-n1nc(-c2ccc(N)cc2)cc1N	inactive
CC1=C(C(=O)OC(C)C)C(c2ccccc2)NC(=S)N1C (stereo unspecified)	inconclusive: 14.1 µM [inhibitor, single point]
O=S1(=O)N=C(N(CCO)/N=C/c2ccccc2)c2ccccc21	inactive
COCCn1c(C)cc(C2=NNC(=Nc3ccccc3)SC2)c1C	inactive
COC(=O)c1c(NC(C)=O)sc2c1CCCCC2	inactive
Cc1c(NC(=O)C(C)N2CC(C)OC(C)C2)c(=O)n(-c2ccccc2)n1C (stereo unspecified)	inactive
O=C(CC1CCCCC1)NC1CCCC1	inactive
CCCc1nc2oc3c(NCC4CCCO4)ncnc3c2c2c1COC(C)(C)C2 (stereo unspecified)	inactive
CN(C)C(=O)c1ccc(NC(=O)Cn2nc(-c3ccccc3)c3ccccc3c2=O)cc1	inactive
COc1ccc(OCCn2cnc3ccccc32)cc1	inconclusive: 35.5 µM [inhibitor, single point]
COc1cccc(NC(=O)c2cc([N+](=O)[O-])ccc2NC(=O)CNCC2CCCO2)c1 (stereo unspecified)	inconclusive: 11.2 µM [inhibitor, single point]
CC1CCC(C(C)C)C(OC(=O)Cn2c(-c3ccccc3)[n+](C)c3ccccc32)C1 (stereo unspecified)	active: 5.8 µM
CC(C)N1CCC(N2CCN(Cc3cc4c(cc3Cl)OCO4)CC2CCO)CC1 (stereo unspecified)	inconclusive: 3.98 µM [inhibitor, full curve]

Compound	Potency
O=[N+]([O-])c1ccc(/C=N/Nc2nc(NCc3ccccc3)nc(N3CCOCC3)n2)cc1	inconclusive: 25.9 µM [inhibitor, partial curve, poor fit]
O=C(O)C1CC=CCC1C(=O)NCCCCc1ccccc1 (stereo unspecified)	inconclusive: 0.355 µM [activator, full curve, poor fit]
CC1CCCC(NC(=O)c2cccc(S(=O)(=O)N3CCCCC3)c2)C1C (stereo unspecified)	inconclusive: 12.6 µM [inhibitor, single point]
Cc1cccc(OCCC(=O)OC(C)C(=O)Nc2ccc(Cl)cn2)c1 (stereo unspecified)	inconclusive: 12.6 µM [activator, single point]
Cc1cc(C)nc(SCC(=O)Nc2ccc(S(=O)(=O)NC(C)(C)C)cc2)n1	inconclusive: 0.092 µM [inhibitor, full curve, poor fit]
O=C(O)c1ccc(CN2C(=O)c3cccc4c([N+](=O)[O-])ccc(c34)C2=O)cc1	inconclusive: 6.31 µM [inhibitor, full curve, poor fit]
Cc1ccccc1CCNCc1ccc(Br)cc1	inconclusive: 11.2 µM [inhibitor, partial curve, poor fit]
COc1cc(NC(=O)c2cc3sccc3n2C)cc(OC)c1	inconclusive: 2.31 µM [activator, single point]
c1coc(-c2nnc3sc(-c4cccs4)nn23)c1	inactive
COc1ccccc1C1(CC(=O)O)CCOC(C)(C)C1 (stereo unspecified)	inconclusive: 1.26 µM [inhibitor, single point]
COc1ccc(NC(=O)c2coc(=O)c3ccccc23)cc1OC	inactive
CCCCCCCn1c2c(c(=N)c3c1CCC3)CCCC2	inconclusive: 3.55 µM [inhibitor, partial curve, poor fit]
O=C(NCc1ccccn1)c1ccc(Cl)cc1Cl	inactive
CCOC(=O)c1ccc2c(c1)C1C=CCC1C(C(=O)OCC)N2 (stereo unspecified)	inactive
Cc1cccc(N2CCN(Cc3cn(C)nc3-c3ccccc3F)CC2)n1	inconclusive: 8.91 µM [inhibitor, partial curve, poor fit]
O/N=C1/CC/C(=N\O)c2nn(-c3ccccc3)nc21	inactive
CCOc1nc(S(=O)(=O)c2ccc(C)cc2)c(Cl)s1	inconclusive: 0.366 µM [inhibitor, partial curve, poor fit]
CC(=O)c1c(C)[nH]c(C(=O)OCC(=O)Nc2ccccc2Cl)c1C	inconclusive: 6.31 µM [inhibitor, single point]
O=C(O)c1ccc(/C=C(\c2nc3ccccc3[nH]2)c2nc3ccccc3s2)cc1	inconclusive: 35.5 µM [inhibitor, single point]
CS(=O)(=O)N(CC(=O)NCCSCc1ccccc1)c1ccccc1	inconclusive: 10 µM [activator, partial curve, poor fit]
COc1ccccc1Nc1nc(N)nc(CSC(=S)N2CC(C)CC(C)C2)n1 (stereo unspecified)	inactive
CC1=C(c2ccc(C(C)C)cc2)S(=O)(=O)N=C1N1CCN(c2ccc(F)cc2)CC1	inactive
CCNCCC(CCC(C)C)c1ccc2c(c1)OCO2 (stereo unspecified)	active: 8.91 µM

Individual results from above:
Value for COCCCNC(=O)c1cc2c(s1)CS(=O)(=O)C2 under Potency: inconclusive: 29.1 µM [activator, single point]
Value for CC(=O)c1c(C)[nH]c(C(=O)OCC(=O)Nc2ccccc2Cl)c1C under Potency: inconclusive: 6.31 µM [inhibitor, single point]
Value for CS(=O)(=O)N(CC(=O)NCCSCc1ccccc1)c1ccccc1 under Potency: inconclusive: 10 µM [activator, partial curve, poor fit]
